Data from the supplement of paper PMC10849652.
Some of the results follow.

By UniProt entry, the sequences of proteins in these tests, tags left out. Where a name states a change or a piece, a line headed by the entry shows the natural chain unless it says otherwise.
UniProt Q96L46: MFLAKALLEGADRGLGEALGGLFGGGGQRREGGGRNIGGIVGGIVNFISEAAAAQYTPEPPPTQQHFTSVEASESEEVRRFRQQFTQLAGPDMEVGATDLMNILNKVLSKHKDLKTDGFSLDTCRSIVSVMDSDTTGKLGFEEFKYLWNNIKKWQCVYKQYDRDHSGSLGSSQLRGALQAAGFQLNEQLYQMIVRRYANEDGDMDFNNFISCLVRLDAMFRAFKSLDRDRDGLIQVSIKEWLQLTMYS
UniProt Q13137: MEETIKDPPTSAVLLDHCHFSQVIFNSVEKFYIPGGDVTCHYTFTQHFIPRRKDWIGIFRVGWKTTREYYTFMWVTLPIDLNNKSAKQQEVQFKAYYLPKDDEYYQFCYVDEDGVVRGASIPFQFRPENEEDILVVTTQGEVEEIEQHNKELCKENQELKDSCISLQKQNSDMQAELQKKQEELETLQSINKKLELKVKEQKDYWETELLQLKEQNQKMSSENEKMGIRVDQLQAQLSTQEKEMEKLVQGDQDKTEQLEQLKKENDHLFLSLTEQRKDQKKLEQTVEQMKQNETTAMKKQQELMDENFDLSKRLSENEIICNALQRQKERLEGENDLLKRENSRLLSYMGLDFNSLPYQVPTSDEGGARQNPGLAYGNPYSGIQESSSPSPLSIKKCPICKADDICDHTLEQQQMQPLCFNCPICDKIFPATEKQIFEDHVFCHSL
UniProt Q9NWQ9: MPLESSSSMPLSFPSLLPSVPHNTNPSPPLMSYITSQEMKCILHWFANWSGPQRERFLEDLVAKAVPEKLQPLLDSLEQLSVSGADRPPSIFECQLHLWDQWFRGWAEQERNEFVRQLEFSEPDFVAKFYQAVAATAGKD
UniProt Q96LW7: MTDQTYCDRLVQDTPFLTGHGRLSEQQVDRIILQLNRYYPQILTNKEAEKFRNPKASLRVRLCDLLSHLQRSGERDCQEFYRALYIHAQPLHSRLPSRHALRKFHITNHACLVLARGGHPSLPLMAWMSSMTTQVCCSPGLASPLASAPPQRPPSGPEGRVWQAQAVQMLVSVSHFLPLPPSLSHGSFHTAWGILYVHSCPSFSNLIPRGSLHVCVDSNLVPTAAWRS
UniProt Q9NX04: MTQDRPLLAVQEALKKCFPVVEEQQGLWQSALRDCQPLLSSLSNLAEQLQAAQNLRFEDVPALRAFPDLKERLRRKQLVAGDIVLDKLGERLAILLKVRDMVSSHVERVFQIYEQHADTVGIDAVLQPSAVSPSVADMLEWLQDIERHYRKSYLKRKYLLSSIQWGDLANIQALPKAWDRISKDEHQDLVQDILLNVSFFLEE
UniProt Q6ZRI6: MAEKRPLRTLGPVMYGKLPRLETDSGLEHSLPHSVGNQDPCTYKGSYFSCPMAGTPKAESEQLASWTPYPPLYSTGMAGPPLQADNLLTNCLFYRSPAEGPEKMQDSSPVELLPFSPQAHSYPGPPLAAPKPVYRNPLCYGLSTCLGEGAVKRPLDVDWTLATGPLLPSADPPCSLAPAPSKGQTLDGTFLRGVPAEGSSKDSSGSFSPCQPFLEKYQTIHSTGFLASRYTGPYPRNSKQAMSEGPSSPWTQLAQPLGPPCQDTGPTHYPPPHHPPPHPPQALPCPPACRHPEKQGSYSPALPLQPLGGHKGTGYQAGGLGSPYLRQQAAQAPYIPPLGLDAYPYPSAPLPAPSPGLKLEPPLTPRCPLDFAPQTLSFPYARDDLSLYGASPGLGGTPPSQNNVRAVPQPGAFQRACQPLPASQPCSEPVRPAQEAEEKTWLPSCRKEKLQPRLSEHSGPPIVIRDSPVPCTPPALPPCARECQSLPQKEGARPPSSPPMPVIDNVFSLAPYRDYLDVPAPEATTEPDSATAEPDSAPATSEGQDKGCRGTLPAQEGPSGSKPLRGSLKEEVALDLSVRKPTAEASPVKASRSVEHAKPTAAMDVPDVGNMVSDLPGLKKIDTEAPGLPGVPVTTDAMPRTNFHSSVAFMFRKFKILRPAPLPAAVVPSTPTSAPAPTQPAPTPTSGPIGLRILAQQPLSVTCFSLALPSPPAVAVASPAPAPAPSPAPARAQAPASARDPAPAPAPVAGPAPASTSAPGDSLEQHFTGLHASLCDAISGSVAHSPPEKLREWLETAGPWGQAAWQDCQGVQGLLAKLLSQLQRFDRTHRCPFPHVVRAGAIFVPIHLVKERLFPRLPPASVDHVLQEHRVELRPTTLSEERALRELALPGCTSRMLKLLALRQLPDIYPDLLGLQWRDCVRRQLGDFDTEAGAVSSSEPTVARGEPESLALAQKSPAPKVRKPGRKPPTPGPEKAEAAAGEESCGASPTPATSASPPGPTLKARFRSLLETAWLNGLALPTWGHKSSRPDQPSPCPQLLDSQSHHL
UniProt Q9Y426: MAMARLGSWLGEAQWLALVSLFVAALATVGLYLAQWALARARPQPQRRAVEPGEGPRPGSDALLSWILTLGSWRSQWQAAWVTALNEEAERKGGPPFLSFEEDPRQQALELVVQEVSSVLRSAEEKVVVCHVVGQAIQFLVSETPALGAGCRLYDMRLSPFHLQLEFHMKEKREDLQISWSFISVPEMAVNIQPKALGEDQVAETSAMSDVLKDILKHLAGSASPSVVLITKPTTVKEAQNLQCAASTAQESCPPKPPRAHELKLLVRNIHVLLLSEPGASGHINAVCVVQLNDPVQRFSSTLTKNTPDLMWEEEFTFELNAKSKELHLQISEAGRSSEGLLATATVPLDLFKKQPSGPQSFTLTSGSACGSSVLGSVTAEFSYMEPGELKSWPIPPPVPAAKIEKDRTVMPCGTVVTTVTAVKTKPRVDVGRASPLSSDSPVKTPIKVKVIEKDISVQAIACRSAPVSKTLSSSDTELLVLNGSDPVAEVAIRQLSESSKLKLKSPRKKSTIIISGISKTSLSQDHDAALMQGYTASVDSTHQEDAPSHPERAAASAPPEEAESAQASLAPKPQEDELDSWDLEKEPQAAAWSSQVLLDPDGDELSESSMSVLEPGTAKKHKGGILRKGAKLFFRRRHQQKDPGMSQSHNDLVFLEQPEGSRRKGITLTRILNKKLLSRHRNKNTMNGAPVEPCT
UniProt Q13936, whole entry, looked up: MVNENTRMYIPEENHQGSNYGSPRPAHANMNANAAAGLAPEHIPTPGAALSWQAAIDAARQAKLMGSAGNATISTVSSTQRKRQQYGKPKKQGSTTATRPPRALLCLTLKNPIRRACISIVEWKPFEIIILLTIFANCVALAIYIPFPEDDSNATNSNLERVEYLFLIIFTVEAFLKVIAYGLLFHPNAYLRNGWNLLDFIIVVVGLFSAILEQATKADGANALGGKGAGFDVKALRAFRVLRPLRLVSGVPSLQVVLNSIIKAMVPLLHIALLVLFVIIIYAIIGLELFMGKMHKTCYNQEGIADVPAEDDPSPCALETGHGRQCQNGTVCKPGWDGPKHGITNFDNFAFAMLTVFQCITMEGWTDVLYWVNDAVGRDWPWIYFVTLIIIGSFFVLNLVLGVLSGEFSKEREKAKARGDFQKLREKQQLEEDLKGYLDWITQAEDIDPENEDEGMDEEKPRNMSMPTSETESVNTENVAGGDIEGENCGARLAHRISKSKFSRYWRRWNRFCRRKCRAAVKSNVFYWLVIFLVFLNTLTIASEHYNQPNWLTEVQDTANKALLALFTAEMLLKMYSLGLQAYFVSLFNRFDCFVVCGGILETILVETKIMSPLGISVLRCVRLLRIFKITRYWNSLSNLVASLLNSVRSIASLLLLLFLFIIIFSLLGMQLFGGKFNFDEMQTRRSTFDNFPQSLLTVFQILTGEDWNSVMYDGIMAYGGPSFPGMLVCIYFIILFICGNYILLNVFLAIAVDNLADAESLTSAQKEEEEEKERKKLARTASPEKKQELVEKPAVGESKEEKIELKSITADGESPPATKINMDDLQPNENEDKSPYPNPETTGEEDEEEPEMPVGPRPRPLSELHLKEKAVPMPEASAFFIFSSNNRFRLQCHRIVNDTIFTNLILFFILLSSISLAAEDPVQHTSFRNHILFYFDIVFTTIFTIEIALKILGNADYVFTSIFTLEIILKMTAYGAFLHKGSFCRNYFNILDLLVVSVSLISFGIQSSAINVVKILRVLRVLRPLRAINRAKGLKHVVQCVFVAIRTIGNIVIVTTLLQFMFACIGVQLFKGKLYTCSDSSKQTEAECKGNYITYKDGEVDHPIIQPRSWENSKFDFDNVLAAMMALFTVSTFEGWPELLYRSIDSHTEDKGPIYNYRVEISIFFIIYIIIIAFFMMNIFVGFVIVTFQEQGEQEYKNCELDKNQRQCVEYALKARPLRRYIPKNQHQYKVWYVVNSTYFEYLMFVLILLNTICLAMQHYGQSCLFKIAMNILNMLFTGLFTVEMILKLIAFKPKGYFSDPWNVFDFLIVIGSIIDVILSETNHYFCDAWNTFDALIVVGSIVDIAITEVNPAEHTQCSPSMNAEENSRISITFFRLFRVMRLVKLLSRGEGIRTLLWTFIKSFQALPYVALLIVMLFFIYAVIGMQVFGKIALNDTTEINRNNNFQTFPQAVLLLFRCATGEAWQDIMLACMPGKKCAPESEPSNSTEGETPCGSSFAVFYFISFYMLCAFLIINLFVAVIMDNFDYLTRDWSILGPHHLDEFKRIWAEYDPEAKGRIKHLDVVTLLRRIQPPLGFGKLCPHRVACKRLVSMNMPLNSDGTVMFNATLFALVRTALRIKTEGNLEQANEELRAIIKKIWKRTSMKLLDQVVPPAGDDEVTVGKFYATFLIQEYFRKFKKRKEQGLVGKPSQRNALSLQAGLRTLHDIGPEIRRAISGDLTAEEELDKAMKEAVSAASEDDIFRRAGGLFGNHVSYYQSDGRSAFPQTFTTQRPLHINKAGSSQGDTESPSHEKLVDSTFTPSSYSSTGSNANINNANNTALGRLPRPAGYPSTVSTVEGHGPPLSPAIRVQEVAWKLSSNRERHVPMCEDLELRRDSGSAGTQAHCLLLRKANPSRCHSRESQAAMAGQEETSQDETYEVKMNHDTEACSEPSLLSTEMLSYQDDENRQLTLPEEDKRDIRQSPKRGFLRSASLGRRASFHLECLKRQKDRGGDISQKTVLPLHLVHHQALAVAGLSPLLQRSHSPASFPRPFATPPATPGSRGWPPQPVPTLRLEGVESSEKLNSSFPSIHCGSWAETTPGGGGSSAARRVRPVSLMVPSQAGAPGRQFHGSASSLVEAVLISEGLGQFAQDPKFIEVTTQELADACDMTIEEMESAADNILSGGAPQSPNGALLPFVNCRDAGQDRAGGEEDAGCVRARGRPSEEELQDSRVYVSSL
UniProt P00736: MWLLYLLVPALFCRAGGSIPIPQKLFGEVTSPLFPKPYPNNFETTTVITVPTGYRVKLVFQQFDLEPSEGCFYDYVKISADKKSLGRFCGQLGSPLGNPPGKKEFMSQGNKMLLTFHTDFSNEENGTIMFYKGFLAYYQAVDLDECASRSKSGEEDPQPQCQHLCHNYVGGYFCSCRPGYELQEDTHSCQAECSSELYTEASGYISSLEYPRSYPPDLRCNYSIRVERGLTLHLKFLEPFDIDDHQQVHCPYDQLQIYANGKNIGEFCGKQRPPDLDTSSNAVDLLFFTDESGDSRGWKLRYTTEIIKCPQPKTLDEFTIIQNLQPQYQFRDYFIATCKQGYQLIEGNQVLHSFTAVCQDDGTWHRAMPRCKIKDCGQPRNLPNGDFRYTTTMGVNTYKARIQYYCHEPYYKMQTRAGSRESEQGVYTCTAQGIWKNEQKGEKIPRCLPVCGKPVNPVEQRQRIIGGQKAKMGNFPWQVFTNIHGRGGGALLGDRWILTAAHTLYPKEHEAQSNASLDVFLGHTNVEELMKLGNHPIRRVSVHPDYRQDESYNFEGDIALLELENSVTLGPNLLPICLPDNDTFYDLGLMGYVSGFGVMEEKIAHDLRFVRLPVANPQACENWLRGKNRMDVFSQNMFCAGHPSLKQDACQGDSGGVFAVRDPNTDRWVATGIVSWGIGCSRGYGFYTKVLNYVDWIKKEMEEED
UniProt Q9NSK7: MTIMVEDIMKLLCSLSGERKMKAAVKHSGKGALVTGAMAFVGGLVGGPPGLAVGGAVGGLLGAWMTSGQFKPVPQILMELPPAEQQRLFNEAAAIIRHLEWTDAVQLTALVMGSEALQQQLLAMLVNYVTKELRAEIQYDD
UniProt Q96F05: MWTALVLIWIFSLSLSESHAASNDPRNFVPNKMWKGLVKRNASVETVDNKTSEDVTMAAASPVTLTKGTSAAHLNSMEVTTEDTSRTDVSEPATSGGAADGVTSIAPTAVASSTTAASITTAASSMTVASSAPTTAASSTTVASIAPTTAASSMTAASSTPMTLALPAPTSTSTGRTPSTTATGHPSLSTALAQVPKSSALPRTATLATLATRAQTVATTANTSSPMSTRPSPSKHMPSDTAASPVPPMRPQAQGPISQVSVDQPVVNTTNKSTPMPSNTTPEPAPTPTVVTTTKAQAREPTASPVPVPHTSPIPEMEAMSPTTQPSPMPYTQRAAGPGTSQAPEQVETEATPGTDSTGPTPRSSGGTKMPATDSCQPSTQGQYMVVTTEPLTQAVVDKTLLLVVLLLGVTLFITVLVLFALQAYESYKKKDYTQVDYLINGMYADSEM

Legend:
Experiment in all cases: log2 fold change, soluble protein after heating vs DMSO (PISA); higher = thermal stabilisation; K562 lysate, 10 uM; active = over 0.2 and 3.5 SD of the protein, either way, in both replicates (recomputed)
[1] = compound: CCn1c(C(=O)N(C2CC2)C2CC2)cc2c3c(ncn3C)c(Nc3cc(C)n(C)n3)nc21
How it was run: (§1)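 K562 pellets were dounce-homogenised in PBS pH 7.4 with 1 mM MgCl2, and the crude extract at 1 mg/mL protein was treated with 10 μM compound for 30 min. Aliquots were heated for 3 min across 48°C-58°C, pooled, and brought to 0.5% NP-40 at 4°C; soluble protein was the supernatant after 21,000xg for 90 min. Soluble protein was quantified by TMTpro 16plex LC-MS/MS with channel sums equalised, and reported as log2 fold change in thermal stability against DMSO controls, with values from duplicates.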

[2] = compound: CCn1cc(-c2ccnc3[nH]c(-c4cccc(CN(C)C)c4)cc23)c(-c2ccc(NC(=O)N(C)C)cc2)n1
How it was run: as §1

[3] = compound: CN1CCC(CNc2ccc3ncc(-c4cccc(OC(F)(F)F)c4)n3n2)CC1
How it was run: as §1

[4] = compound: CN1CCN(c2nc(C3=C(c4c[nH]c5ccccc45)C(=O)NC3=O)c3ccccc3n2)CC1 [sotrastaurin]
How it was run: as §1

[5] = compound: CCN(CCCOc1ccc2c(Nc3cc(CC(=O)Nc4cccc(F)c4)[nH]n3)ncnc2c1)CCOP(=O)(O)O [barasertib]
How it was run: as §1

[6] = compound: CN1CCN(CCOc2cc(OC3CCOCC3)c3c(Nc4c(Cl)ccc5c4OCO5)ncnc3c2)CC1 [saracatinib]
How it was run: as §1

[7] = compound: CCCS(=O)(=O)Nc1ccc(F)c(C(=O)c2c[nH]c3ncc(Cl)cc23)c1F
How it was run: as §1

[8] = compound: CC[C@@H]1C(=O)N(C)c2cnc(Nc3ccc(C(=O)NC4CCN(C)CC4)cc3OC)nc2N1C1CCCC1
How it was run: as §1

[9] = compound: CC[C@@H]1C(=O)N(C)c2cnc(Nc3ccc(C(=O)N[C@H]4CC[C@H](N5CCN(CC6CC6)CC5)CC4)cc3OC)nc2N1C(C)C [volasertib]
How it was run: as §1

Measured: log2 fold change

CAPNS2 (UniProt Q96L46)
inactive: [1] 0.033

CALCOCO2 isoform 5 (UniProt Q13137)
inactive: [2] -0.58 | [3] -0.018

C14orf119 (UniProt Q9NWQ9)
inactive: [2] 0.171 | [3] -0.125 | [4] 0.086

CAP1 isoform 2 (UniProt Q01518)
inactive: [5] -0.16 | [1] -0.308 | [2] -0.077 | [3] -0.041 | [6] 0.122 | [4] 0.258

CARD19 (UniProt Q96LW7)
inactive: [4] 0.081

C1orf109 (UniProt Q9NX04)
inactive: [7] 0 | [8] -0.137 | [9] -0.106 | [1] 0.048 | [6] -0.161 | [4] 0.086

C15orf39 (UniProt Q6ZRI6)
inactive: [5] -0.012 | [8] -0.047 | [1] -0.008 | [2] 0.08 | [3] 0.132 | [6] 0.025 | [4] 0.042

C9orf85 isoform 1 (UniProt Q96MD7)
inactive: [5] 0.058 | [1] -0.118 | [2] -0.089 | [3] 0.043 | [6] 0.04

C2CD2 (UniProt Q9Y426)
inactive: [5] 0.114 | [8] -0.064 | [1] -0.004 | [2] 0.036 | [3] -0.11 | [6] -0.006 | [4] 0.083

C19orf44 (UniProt Q9H6X5)
inactive: [1] 0.049

C1RL (UniProt Q9NZP8)
inactive: [8] 0.089 | [2] 0.092 | [3] 0.158

C6orf120 (UniProt Q7Z4R8)
inactive: [7] -0.127 | [5] 0.096 | [9] 0.051 | [2] -0.005 | [3] 0.049 | [6] 0.004

C2orf49 isoform 2 (UniProt Q9BVC5)
inactive: [1] 0.033

CACNA1C isoform 2 (UniProt Q13936)
inactive: [7] 0.069 | [9] 0.151 | [2] -0.034 | [3] -0.014

BUD13 (UniProt Q9BRD0)
inactive: [5] 0.092 | [8] -0.07 | [1] -0.037 | [2] 0.076 | [3] -0.064 | [6] 0.096 | [4] 0.025

C11orf96 (UniProt Q7Z7L8)
inactive: [7] 0.122 | [5] -0.035 | [9] 0.061 | [1] 0.056 | [2] -0.107 | [3] 0.035 | [6] -0.002 | [4] -0.043

C4orf46 (UniProt Q504U0)
inactive: [1] 0.097 | [6] 0.192

C17orf53 (UniProt Q8N3J3)
inactive: [6] 0.199 | [4] 0.089

CAPNS1 (UniProt U3KPR7)
inactive: [7] -0.125 | [5] 0.424 | [9] -0.01

CALR (UniProt K7EJB9)
inactive: [7] 0.042 | [9] 0.039

C12orf4 (UniProt Q9NQ89)
inactive: [7] 0 | [5] 0.112 | [8] -0.124 | [9] -0.02 | [4] 0.072

C1R (UniProt P00736)
inactive: [7] 0.031 | [9] 0.07

C12orf73 (UniProt Q69YU5)
inactive: [7] 0.012 | [5] 0.056 | [9] -0.011 | [1] -0.136 | [2] 0.003 | [3] -0.061 | [6] -0.082 | [4] -0.079

C19orf12 (UniProt Q9NSK7)
inactive: [7] -0.033 | [8] 0.02 | [9] 0.107 | [1] 0.132 | [6] -0.002 | [4] -0.043

C5orf24 (UniProt Q7Z6I8)
inactive: [4] 0.027

CAP1 (UniProt Q5T0R8)
inactive: [7] -0.115 | [9] 0.041 | [2] -0.107 | [3] 0.027

C8orf88 (UniProt P0DMB2)
inactive: [5] -0.053 | [1] 0.027 | [2] 0.084 | [3] 0.011 | [6] 0.051 | [4] -0.015

C11orf24 (UniProt Q96F05)
inactive: [1] -0.072 | [2] 0.11 | [3] 0.119 | [4] -0.04

CAMKMT (UniProt Q7Z624)
inactive: [7] 0.02 | [9] 0.111 | [1] 0.043 | [6] 0.005

Taken from the results shown (2 entries):
C11orf24 (UniProt Q96F05)
inactive: [1] -0.072 | [2] 0.11 | [3] 0.119 | [4] -0.04

CAMKMT (UniProt Q7Z624)
inactive: [7] 0.02 | [9] 0.111 | [1] 0.043 | [6] 0.005
